According to article PMC7948500, “Comparative interactomes of HSF1 in stress and disease reveal a role for CTCF in HSF1-mediated gene regulation” (The Journal of Biological Chemistry, 2020):
No constants are given. Whether binding was seen depends on the method and setting. In cells and extracts the contact can be indirect. Tags and fused reporters may be left off the sequences shown.

Target: HSF1 ΔN1
Test: co-IP; FLAG pull-down on anti-FLAG M2 magnetic beads from stable HSF1-knockdown 293T cells transfected with HA-CTCF and FLAG-HSF1 wildtype or truncations; immunoblot with anti-HA

B1: hemagglutinin-tagged CTCF (protein, UniProt P49711 1-727)
chain: MEGDAVEAIVEESETFIKGKERKTYQRRREGGQEEDACHLPQNQTDGGEVVQDVNSSVQMVMMEQLDPTLLQMKTEVMEGTVAPEAEAAVDDTQIITLQVVNMEEQPINIGELQLVQVPVPVTVPVATTSVEELQGAYENEVSKEGLAESEPMICHTLPLPEGFQVVKVGANGEVETLEQGELPPQEDPSWQKDPDYQPPAKKTKKTKKSKLRYTEEGKDVDVSVYDFEEEQQEGLLSEVNAEKVVGNMKPPKPTKIKKKGVKKTFQCELCSYTCPRRSNLDRHMKSHTDERPHKCHLCGRAFRTVTLLRNHLNTHTGTRPHKCPDCDMAFVTSGELVRHRRYKHTHEKPFKCSMCDYASVEVSKLKRHIRSHTGERPFQCSLCSYASRDTYKLKRHMRTHSGEKPYECYICHARFTQSGTMKMHILQKHTENVAKFHCPHCDTVIARKSDLGVHLRKQHSYIEQGKKCRYCDAVFHERYALIQHQKSHKNEKRFKCDQCDYACRQERHMIMHKRTHTGEKPYACSHCDKTFRQKQLLDMHFKRYHDPNFVPAAFVCSKCGKTFTRRNTMARHADNCAGPDGVEGENGGETKKSKRGRKRKMRSKKEDSSDSENAEPDLDDNEDEEEPAVEIEPEPEPQPVTPAPPPAKKRRGRPPGRTNQPKQNQPTAIIQVEDQNTGAIENIIVEVKKEPDAEPAEGEEEEAQPAATDAPNGDLTPEMILSMMDR
binding: no binding
